± gives the standard deviation of the averaged measurements. Most entries show no effect beyond the scatter of the controls.
Key:
Assay in all cases: level (log10 ratio to DMSO vehicle control); higher = higher biomarker level / cell amount than vehicle control
[1] = compound: C=CC(=O)OCC(F)(F)C(F)(F)C(F)(F)COC(=O)C=C [1H,1H,5H,5H-Perfluoro-1,5-pentanediol diacrylate]; details: 2200 nM; in DMSO
Procedure: (§1)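 BioMAP Diversity Plus panel of 12 human primary cell co-culture systems (3C, 4H, LPS, SAg, BT, BF4T, BE3C, CASM3C, HDF3CGF, KF3CT, MyoF, Mphg). Compounds were added 1 h before stimulation and left for 24 h (MyoF 48 h; BT 72 h for soluble read-outs or 6 d for IgG). Biomarkers were read by ELISA, cytotoxicity by SRB, PBMC viability and proliferation by Alamar Blue. Each well value was divided by the mean of 8 DMSO control wells on the same plate and log10 transformed; duplicate blinded samples were tested at 4 concentrations.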

[2] = compound: C=CC(=O)OCCC(F)(F)C(F)(F)C(F)(F)C(F)(F)C(F)(F)C(F)(F)C(F)(F)C(F)(F)F [8:2 Fluorotelomer acrylate]; details: 2200 nM; in DMSO
Procedure: as §1

[3] = compound: C=CC(=O)OCCC(F)(F)C(F)(F)C(F)(F)C(F)(F)F [2-(Perfluorobutyl)ethyl acrylate]; details: 2200 nM; in DMSO
Procedure: as §1

[4] = compound: FC(F)(F)C(F)(C(F)(F)F)C(F)(F)C(F)(F)CC1CO1 [3-(Perfluoro-3-methylbutyl)-1,2-propenoxide]; details: in DMSO
Procedure: as §1

Perfluoro-1-iodohexane = compound: FC(F)(F)C(F)(F)C(F)(F)C(F)(F)C(F)(F)C(F)(F)I [Perfluoro-1-iodohexane]; details: in DMSO
Procedure: as §1

[5] = compound: FC(F)(I)C(F)(F)C(F)(F)C(F)(F)C(F)(F)C(F)(F)I [1,6-Diiodoperfluorohexane]; details: 2200 nM; in DMSO
Procedure: as §1

[6] = compound: O=C(Cl)C(F)(F)C(F)(F)C(F)(F)C(=O)Cl [Hexafluoroglutaryl chloride]; details: 2200 nM; in DMSO
Procedure: as §1

[7] = compound: O=C(O)C(F)(F)C(F)(F)C(F)(F)C(F)(F)C(F)(F)C(F)(F)C(F)(F)C(F)(F)C(F)(F)C(F)(F)C(F)(F)C(F)(F)C(F)(F)F [Perfluorotetradecanoic acid]; details: in DMSO
Procedure: as §1

[8] = compound: O=C(O)C=C(C(F)(F)F)C(F)(F)F [3,3-Bis(trifluoromethyl)-2-propenoic acid]; details: in DMSO
Procedure: as §1

[9] = compound: O=S(=O)(O)C(F)(F)C(F)(F)C(F)(F)C(F)(F)C(F)(F)C(F)(F)F [Perfluorohexanesulfonic acid]; details: 2200 nM; in DMSO
Procedure: as §1

[10] = compound: O=S(=O)(O)CCC(F)(F)C(F)(F)C(F)(F)C(F)(F)F [4:2 Fluorotelomer sulfonic acid]; details: 2200 nM; in DMSO
Procedure: as §1

Hexafluoroamylene glycol = compound: OCC(F)(F)C(F)(F)C(F)(F)CO [Hexafluoroamylene glycol]; details: 2200 nM; in DMSO
Procedure: as §1

[11] = compound: OCCCC(F)(F)C(F)(F)C(F)(F)C(F)(F)C(F)(F)C(F)(F)C(F)(F)F [7:3 Fluorotelomer alcohol]; details: 2200 nM; in DMSO
Procedure: as §1

| Test System | level (log10) [1] | level (log10) [2] | level (log10) [3] | level (log10) ([4]; 740 nM) | level (log10) ([4]; 2200 nM) | level (log10) (Perfluoro-1-iodohexane; 2200 nM) | level (log10) (Perfluoro-1-iodohexane; 6700 nM) | level (log10) (Perfluoro-1-iodohexane; 20000 nM) | level (log10) (Perfluoro-1-iodohexane; 60000 nM) | level (log10) [5] | level (log10) [6] | level (log10) ([7]; 740 nM) | level (log10) ([7]; 2200 nM) | level (log10) ([8]; 2200 nM) | level (log10) ([8]; 6700 nM) | level (log10) ([8]; 20000 nM) | level (log10) ([8]; 60000 nM) | level (log10) [9] | level (log10) [10] | level (log10) (Hexafluoroamylene glycol) | level (log10) [11] |
| --- | --- | --- | --- | --- | --- | --- | --- | --- | --- | --- | --- | --- | --- | --- | --- | --- | --- | --- | --- | --- | --- |
| CASM3C:LDLR | 0.0135 ± 0.029 | -0.009 ± 0.03 | -0.0015 ± 0.028 | 0.019 ± 0.044 | -0.013 ± 0.023 | 0.0125 ± 0.025 | -0.008 ± 0.0057 | 0.0155 ± 0.016 | 0.005 ± 0.028 | 0.0385 ± 0.04 | -0.008 ± 0.062 | -0.0225 ± 0.0078 | -0.0165 ± 0.0021 | -0.0035 ± 0.012 | -0.008 ± 0.011 | -0.0175 ± 0.0064 | -0.022 ± 0.016 | 0.004 ± 0.03 | -0.0015 ± 0.012 | 0.0105 ± 0.016 | 0.002 ± 0.011 |
| MyoF:TIMP-1 | 0.022 ± 0.028 | -0.018 ± 0.033 | -0.035 ± 0.025 | -0.0065 ± 0.043 | -0.014 ± 0.013 | 0.0185 ± 0.00071 | 0.036 ± 0.0085 | 0.0395 ± 0.011 | -0.058 ± 0.0014 | 0.042 ± 0.0071 | -0.0585 ± 0.03 | 0.01 ± 0.035 | 0.001 ± 0.071 | -0.015 ± 0.0057 | -0.0545 ± 0.025 | -0.023 ± 0.023 | -0.0085 ± 0.077 | -0.021 ± 0.033 | -0.056 ± 0.062 | -0.0555 ± 0.042 | 0.008 ± 0.0014 |
| MyoF:PAI-I | 0 ± 0.018 | -0.005 ± 0.018 | -0.0035 ± 0.033 | 0.0015 ± 0.005 | -0.003 ± 0.0028 | 0.002 ± 0.0071 | -0.001 ± 0.0028 | -0.025 ± 0.0057 | -0.12 ± 0.054 | -0.002 ± 0.018 | 0.011 ± 0.024 | 0.0155 ± 0.005 | 0.0155 ± 0.0021 | -0.009 ± 0.041 | -0.005 ± 0.0042 | 0.0045 ± 0.0064 | 0.005 ± 0.02 | -0.0115 ± 0.0078 | 0.0005 ± 0.00071 | -0.003 ± 0.0071 | 0.017 ± 0.0042 |
| LPS:CD106/VCAM-1 | -0.0215 ± 0.0064 | -0.0165 ± 0.016 | -0.016 ± 0.025 | -0.001 ± 0.0085 | -0.004 ± 0.011 | -0.039 ± 0.0071 | -0.031 ± 0.0057 | -0.0145 ± 0.018 | -0.029 ± 0.0028 | -0.0215 ± 0.023 | -0.004 ± 0.02 | 0.0275 ± 0.013 | -0.0045 ± 0.036 | -0.0635 ± 0.032 | -0.106 ± 0.021 | -0.141 ± 0.018 | -0.244 ± 0.069 | -0.007 ± 0.0042 | 0.0195 ± 0.012 | -0.003 ± 0.068 | -0.0485 ± 0.021 |
| CASM3C:CD142/Tissue Factor | -0.0145 ± 0.043 | -0.0485 ± 0.0064 | -0.035 ± 0.023 | -0.0225 ± 0.019 | -0.0175 ± 0.021 | 0.0005 ± 0.019 | -0.009 ± 0.013 | -0.018 ± 0.0042 | -0.031 | -0.024 ± 0.0071 | -0.0405 ± 0.13 | -0.001 ± 0.0014 | -0.0175 ± 0.0035 | 0.0175 ± 0.0021 | 0.055 ± 0.018 | -0.009 ± 0.041 | -0.0635 ± 0.06 | -0.0045 ± 0.0092 | 0.016 ± 0.017 | 0.022 ± 0.059 | -0.001 ± 0.028 |
| BF4T:Keratin 8/18 | -0.017 ± 0.021 | 0.009 ± 0.016 | -0.0135 ± 0.088 | 0.0175 ± 0.0021 | 0.015 ± 0.011 | 0.009 ± 0.011 | -0.0075 ± 0.067 | -0.023 ± 0.016 | -0.015 ± 0.088 | 0.0045 ± 0.019 | 0.009 ± 0.021 | 0.0045 ± 0.015 | -0.0025 ± 0.00071 | 0.019 ± 0.02 | -0.012 ± 0.0085 | -0.012 ± 0.0028 | 0.007 ± 0.014 | 0.013 ± 0.0085 | 0.014 ± 0.023 | 0.007 ± 0.041 | -0.002 ± 0.011 |
| 4H:CCL2/MCP-1 | -0.0135 ± 0.079 | -0.015 ± 0.042 | 0.0055 ± 0.074 | 0.006 ± 0.14 | -0.043 ± 0.037 | 0.0205 ± 0.049 | 0.0085 ± 0.015 | -0.008 ± 0.0028 | 0.0145 ± 0.029 | 0.009 ± 0.048 | -0.0115 ± 0.013 | -0.0115 ± 0.071 | -0.031 ± 0.081 | 0.0095 ± 0.044 | -0.051 ± 0.035 | -0.0675 ± 0.005 | -0.081 ± 0.052 | -0.0305 ± 0.053 | 0.0135 ± 0.018 | 0.004 ± 0.035 | 0.025 ± 0.014 |
| SAg:CXCL9/MIG | -0.009 ± 0.02 | -0.0035 ± 0.023 | -0.012 ± 0.017 | -0.002 | 0.005 ± 0.0057 | 0.005 ± 0.0028 | -0.0205 ± 0.028 | -0.005 ± 0.014 | 0.0045 ± 0.032 | -0.002 ± 0.0014 | 0.0045 ± 0.0035 | 0.0015 ± 0.005 | -0.003 ± 0.017 | -0.0025 ± 0.013 | -0.0065 ± 0.012 | -0.017 ± 0.0099 | 0.006 ± 0.0071 | 0.0035 ± 0.03 | 0.0055 ± 0.0035 | 0.0075 ± 0.0035 | -0.001 ± 0.016 |
| lMphg:M-CSF | 0.0035 ± 0.03 | -0.017 ± 0.051 | 0.0135 ± 0.0064 | 0.006 ± 0.0085 | -0.0135 ± 0.013 | 0.0005 ± 0.019 | -0.0095 ± 0.0035 | -0.032 ± 0.016 | 0.0085 ± 0.026 | 0.0105 ± 0.042 | 0.015 ± 0.0071 | -0.002 ± 0.031 | -0.0065 ± 0.04 | -0.0095 ± 0.033 | -0.033 ± 0.0071 | -0.021 ± 0.021 | -0.0325 ± 0.022 | 0.013 ± 0.0099 | -0.0305 ± 0.015 | -0.027 ± 0.017 | -0.041 ± 0.069 |
| lMphg:CCL2/MCP-1 | -0.017 ± 0.021 | -0.007 ± 0.011 | -0.0005 ± 0.018 | 0.015 ± 0.027 | -0.0235 ± 0.011 | 0.001 ± 0.0014 | -0.021 ± 0.0099 | 0.0145 ± 0.032 | -0.003 ± 0.025 | 0.0095 ± 0.039 | 0 ± 0.044 | 0.007 ± 0.018 | 0.001 ± 0.031 | -0.0145 ± 0.0035 | -0.007 ± 0.0028 | -0.016 ± 0.0028 | -0.078 ± 0.061 | 0.022 ± 0.042 | 0.0085 ± 0.054 | -0.0025 ± 0.011 | -0.002 ± 0.016 |
| LPS:CD62E/E-Selectin | 0.017 ± 0.0028 | 0.006 ± 0.041 | 0.0225 ± 0.044 | 0.0065 ± 0.032 | 0.015 ± 0.011 | 0.0035 ± 0.021 | -0.0115 ± 0.0035 | -0.0175 ± 0.011 | 0.015 ± 0.023 | -0.017 ± 0.028 | 0.0205 ± 0.0021 | 0.017 ± 0.0057 | 0.011 ± 0.018 | -0.012 ± 0.0028 | -0.013 ± 0.021 | -0.025 ± 0.0071 | -0.0345 ± 0.005 | -0.0065 ± 0.025 | 0.017 ± 0.042 | 0.018 ± 0.067 | 0.0075 ± 0.0064 |
| 4H:CD62P/P-selectin | 0.0175 ± 0.036 | -0.039 ± 0.0028 | -0.0105 ± 0.018 | -0.0235 ± 0.059 | 0.011 ± 0.041 | 0.0445 ± 0.086 | 0.034 ± 0.028 | -0.012 ± 0.11 | 0.0625 ± 0.14 | -0.029 ± 0.024 | -0.019 ± 0.0085 | -0.003 ± 0.018 | -0.005 ± 0.014 | 0.0165 ± 0.012 | 0.005 ± 0.0042 | -0.0505 ± 0.022 | -0.164 ± 0.028 | 0.0155 ± 0.022 | -0.012 ± 0.02 | -0.049 ± 0.062 | 0.0525 ± 0.049 |

2 neighbouring records already listed:

| Test System | level (log10) [1] | level (log10) [2] | level (log10) [3] | level (log10) ([4]; 740 nM) | level (log10) ([4]; 2200 nM) | level (log10) (Perfluoro-1-iodohexane; 2200 nM) | level (log10) (Perfluoro-1-iodohexane; 6700 nM) | level (log10) (Perfluoro-1-iodohexane; 20000 nM) | level (log10) (Perfluoro-1-iodohexane; 60000 nM) | level (log10) [5] | level (log10) [6] | level (log10) ([7]; 740 nM) | level (log10) ([7]; 2200 nM) | level (log10) ([8]; 2200 nM) | level (log10) ([8]; 6700 nM) | level (log10) ([8]; 20000 nM) | level (log10) ([8]; 60000 nM) | level (log10) [9] | level (log10) [10] | level (log10) (Hexafluoroamylene glycol) | level (log10) [11] |
| --- | --- | --- | --- | --- | --- | --- | --- | --- | --- | --- | --- | --- | --- | --- | --- | --- | --- | --- | --- | --- | --- |
| lMphg:M-CSF | 0.0035 ± 0.03 | -0.017 ± 0.051 | 0.0135 ± 0.0064 | 0.006 ± 0.0085 | -0.0135 ± 0.013 | 0.0005 ± 0.019 | -0.0095 ± 0.0035 | -0.032 ± 0.016 | 0.0085 ± 0.026 | 0.0105 ± 0.042 | 0.015 ± 0.0071 | -0.002 ± 0.031 | -0.0065 ± 0.04 | -0.0095 ± 0.033 | -0.033 ± 0.0071 | -0.021 ± 0.021 | -0.0325 ± 0.022 | 0.013 ± 0.0099 | -0.0305 ± 0.015 | -0.027 ± 0.017 | -0.041 ± 0.069 |
| lMphg:CCL2/MCP-1 | -0.017 ± 0.021 | -0.007 ± 0.011 | -0.0005 ± 0.018 | 0.015 ± 0.027 | -0.0235 ± 0.011 | 0.001 ± 0.0014 | -0.021 ± 0.0099 | 0.0145 ± 0.032 | -0.003 ± 0.025 | 0.0095 ± 0.039 | 0 ± 0.044 | 0.007 ± 0.018 | 0.001 ± 0.031 | -0.0145 ± 0.0035 | -0.007 ± 0.0028 | -0.016 ± 0.0028 | -0.078 ± 0.061 | 0.022 ± 0.042 | 0.0085 ± 0.054 | -0.0025 ± 0.011 | -0.002 ± 0.016 |
